{"source": "PubChem BioAssay AID1259327 – Drosophila RNAi Screening Center | 2017", "purpose": "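Data from controls in screens of zinc and manganese toxicity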", "system": "Drosophila S2R+ cells", "reagents": "long dsRNA against Drosophila genes", "time to read-out": "5 days (water added on day 4, read one day later)", "challenge": "water added as vehicle, no metal, one day before read-out", "read-out": "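Luciferase ATP signal per well, normalised to plate mean, duplicate average converted to z-score across plates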", "direction": "ATP z-score: higher = more total ATP than typical wells; ATP luminescence: higher = more total ATP", "rule for the call": "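a hit is any knock-down whose absolute ATP z-score is greater than 1.5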", "meaning of the calls": "active = hit: ATP up or down; inactive = no clear ATP change", "note": "Here is an unselected part of about 3,100 reagents. 378 of them (12%) were called active. 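Hits include both directions; z-score sign shows ATP rise or fall; raw luminescence values are not plate-normalised.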 Not stated in the record: the amount of reagent."}
{"gene knocked down": "salt", "PubChem SID": "SID104204059", "ATP z-score, duplicate mean": 0.0387, "ATP luminescence, replicate 1 (RLU)": 8.84e5, "ATP luminescence, replicate 2 (RLU)": 7.76e5, "Outcome": "inactive"}
{"gene knocked down": "CG11110", "PubChem SID": "SID104185829", "ATP z-score, duplicate mean": -1.44, "ATP luminescence, replicate 1 (RLU)": 5.36e5, "ATP luminescence, replicate 2 (RLU)": 4.41e5, "Outcome": "inactive"}
{"gene knocked down": "CG11110", "PubChem SID": "SID104205899", "ATP z-score, duplicate mean": 1.74, "ATP luminescence, replicate 1 (RLU)": 1.18e6, "ATP luminescence, replicate 2 (RLU)": 1.17e6, "Outcome": "active"}
{"gene knocked down": "Nhe2", "PubChem SID": "SID104182964", "ATP z-score, duplicate mean": -0.84, "ATP luminescence, replicate 1 (RLU)": 3.03e5, "ATP luminescence, replicate 2 (RLU)": 5.64e5, "Outcome": "inactive"}
{"gene knocked down": "Nhe2", "PubChem SID": "SID104183169", "ATP z-score, duplicate mean": 0.747, "ATP luminescence, replicate 1 (RLU)": 8.19e5, "ATP luminescence, replicate 2 (RLU)": 7.92e5, "Outcome": "inactive"}
{"gene knocked down": "gb", "PubChem SID": "SID104195753", "ATP z-score, duplicate mean": -0.118, "ATP luminescence, replicate 1 (RLU)": 6.55e5, "ATP luminescence, replicate 2 (RLU)": 7.30e5, "Outcome": "inactive"}
{"gene knocked down": "gb", "PubChem SID": "SID104203427", "ATP z-score, duplicate mean": 0.427, "ATP luminescence, replicate 1 (RLU)": 9.08e5, "ATP luminescence, replicate 2 (RLU)": 8.98e5, "Outcome": "inactive"}
{"gene knocked down": "Cad99C", "PubChem SID": "SID104194842", "ATP z-score, duplicate mean": 1.3, "ATP luminescence, replicate 1 (RLU)": 5.26e5, "ATP luminescence, replicate 2 (RLU)": 7.11e5, "Outcome": "inactive"}
{"gene knocked down": "Cad99C", "PubChem SID": "SID104196109", "ATP z-score, duplicate mean": 0.283, "ATP luminescence, replicate 1 (RLU)": 7.20e5, "ATP luminescence, replicate 2 (RLU)": 7.49e5, "Outcome": "inactive"}
{"gene knocked down": "CG7272", "PubChem SID": "SID104190587", "ATP z-score, duplicate mean": 0.02, "ATP luminescence, replicate 1 (RLU)": 9.37e5, "ATP luminescence, replicate 2 (RLU)": 8.61e5, "Outcome": "inactive"}
{"gene knocked down": "CG7272", "PubChem SID": "SID104217144", "ATP z-score, duplicate mean": 3.02, "ATP luminescence, replicate 1 (RLU)": 6.87e5, "ATP luminescence, replicate 2 (RLU)": 6.53e5, "Outcome": "active"}
{"gene knocked down": "Tim23", "PubChem SID": "SID104201032", "ATP z-score, duplicate mean": -1.02, "ATP luminescence, replicate 1 (RLU)": 6.30e5, "ATP luminescence, replicate 2 (RLU)": 6.05e5, "Outcome": "inactive"}
{"gene knocked down": "ZnT49B", "PubChem SID": "SID104187017", "ATP z-score, duplicate mean": -0.542, "ATP luminescence, replicate 1 (RLU)": 4.99e5, "ATP luminescence, replicate 2 (RLU)": 6.42e5, "Outcome": "inactive"}
{"gene knocked down": "ZnT49B", "PubChem SID": "SID104215577", "ATP z-score, duplicate mean": -0.217, "ATP luminescence, replicate 1 (RLU)": 5.83e5, "ATP luminescence, replicate 2 (RLU)": 5.39e5, "Outcome": "inactive"}
{"gene knocked down": "mthl4", "PubChem SID": "SID104186790", "ATP z-score, duplicate mean": -0.91, "ATP luminescence, replicate 1 (RLU)": 5.23e5, "ATP luminescence, replicate 2 (RLU)": 5.51e5, "Outcome": "inactive"}
{"gene knocked down": "Vmat", "PubChem SID": "SID104201754", "ATP z-score, duplicate mean": -1.89, "ATP luminescence, replicate 1 (RLU)": 6.55e5, "ATP luminescence, replicate 2 (RLU)": 5.74e5, "Outcome": "active"}
{"gene knocked down": "ninaA", "PubChem SID": "SID104180622", "ATP z-score, duplicate mean": 1.19, "ATP luminescence, replicate 1 (RLU)": 5.41e5, "ATP luminescence, replicate 2 (RLU)": 5.86e5, "Outcome": "inactive"}
{"gene knocked down": "CG40006", "PubChem SID": "SID104183579", "ATP z-score, duplicate mean": 0.406, "ATP luminescence, replicate 1 (RLU)": 6.48e5, "ATP luminescence, replicate 2 (RLU)": 9.34e5, "Outcome": "inactive"}
{"gene knocked down": "CG40006", "PubChem SID": "SID104183606", "ATP z-score, duplicate mean": 0.144, "ATP luminescence, replicate 1 (RLU)": 7.10e5, "ATP luminescence, replicate 2 (RLU)": 8.09e5, "Outcome": "inactive"}
{"gene knocked down": "CG1924", "PubChem SID": "SID104199615", "ATP z-score, duplicate mean": 1.48, "ATP luminescence, replicate 1 (RLU)": 7.01e5, "ATP luminescence, replicate 2 (RLU)": 8.05e5, "Outcome": "inactive"}
{"gene knocked down": "CG1924", "PubChem SID": "SID104203447", "ATP z-score, duplicate mean": -0.326, "ATP luminescence, replicate 1 (RLU)": 8.33e5, "ATP luminescence, replicate 2 (RLU)": 7.38e5, "Outcome": "inactive"}
{"gene knocked down": "Adgf-A2", "PubChem SID": "SID104189299", "ATP z-score, duplicate mean": 1.02, "ATP luminescence, replicate 1 (RLU)": 6.29e5, "ATP luminescence, replicate 2 (RLU)": 7.13e5, "Outcome": "inactive"}
{"gene knocked down": "Adgf-A2", "PubChem SID": "SID104217017", "ATP z-score, duplicate mean": 1.66, "ATP luminescence, replicate 1 (RLU)": 5.88e5, "ATP luminescence, replicate 2 (RLU)": 5.38e5, "Outcome": "active"}
{"gene knocked down": "CG7840", "PubChem SID": "SID104182867", "ATP z-score, duplicate mean": -2.12, "ATP luminescence, replicate 1 (RLU)": 3.35e5, "ATP luminescence, replicate 2 (RLU)": 3.25e5, "Outcome": "active"}
{"gene knocked down": "CG7840", "PubChem SID": "SID104217442", "ATP z-score, duplicate mean": -0.413, "ATP luminescence, replicate 1 (RLU)": 4.74e5, "ATP luminescence, replicate 2 (RLU)": 6.32e5, "Outcome": "inactive"}
{"gene knocked down": "TM4SF", "PubChem SID": "SID104184453", "ATP z-score, duplicate mean": 0.124, "ATP luminescence, replicate 1 (RLU)": 6.71e5, "ATP luminescence, replicate 2 (RLU)": 8.19e5, "Outcome": "inactive"}
{"gene knocked down": "TM4SF", "PubChem SID": "SID104217149", "ATP z-score, duplicate mean": 0.183, "ATP luminescence, replicate 1 (RLU)": 4.61e5, "ATP luminescence, replicate 2 (RLU)": 4.95e5, "Outcome": "inactive"}
{"gene knocked down": "ihog", "PubChem SID": "SID104182949", "ATP z-score, duplicate mean": 0.724, "ATP luminescence, replicate 1 (RLU)": 4.91e5, "ATP luminescence, replicate 2 (RLU)": 5.71e5, "Outcome": "inactive"}
{"gene knocked down": "ihog", "PubChem SID": "SID104208125", "ATP z-score, duplicate mean": 0.0292, "ATP luminescence, replicate 1 (RLU)": 1.01e6, "ATP luminescence, replicate 2 (RLU)": 6.64e5, "Outcome": "inactive"}
{"gene knocked down": "COX4", "PubChem SID": "SID104181883", "ATP z-score, duplicate mean": -1.63, "ATP luminescence, replicate 1 (RLU)": 3.18e5, "ATP luminescence, replicate 2 (RLU)": 4.15e5, "Outcome": "active"}
{"gene knocked down": "COX4", "PubChem SID": "SID104202942", "ATP z-score, duplicate mean": -1.89, "ATP luminescence, replicate 1 (RLU)": 5.68e5, "ATP luminescence, replicate 2 (RLU)": 6.63e5, "Outcome": "active"}
